From patent EP1435356A1, “Quinoline derivatives as CRTH2 antagonists” (Warner-Lambert Company LLC, priority 2003, dated 2004)
Some results were stated once for a whole list of compounds, not compound by compound.

Biological target: T1, CRTH2 (Homo sapiens, UniProt Q9Y5Y4)
T1 construct: expressed in transfected cells; host or cells: L1.2 cells (membrane preparation)
T1 sequence (Q9Y5Y4 1-395): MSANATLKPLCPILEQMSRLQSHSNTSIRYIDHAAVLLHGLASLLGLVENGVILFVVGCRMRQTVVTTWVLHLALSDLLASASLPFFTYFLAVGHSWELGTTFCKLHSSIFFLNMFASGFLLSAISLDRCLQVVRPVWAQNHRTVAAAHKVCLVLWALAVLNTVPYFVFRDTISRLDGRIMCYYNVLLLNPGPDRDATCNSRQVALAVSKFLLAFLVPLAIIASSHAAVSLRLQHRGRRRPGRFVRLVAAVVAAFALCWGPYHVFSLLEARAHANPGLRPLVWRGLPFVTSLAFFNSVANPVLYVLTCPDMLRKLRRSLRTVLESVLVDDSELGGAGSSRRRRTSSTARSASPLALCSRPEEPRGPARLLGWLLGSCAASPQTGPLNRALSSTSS
Test: Binding test (3H-PGD2 competition, SPA)
Details: competition with 3H-PGD2 for binding to membranes from CRTH2-expressing L1.2 cells, SPA beads, room temperature, at least 1 hour

SMILES | IC50 [µM]
COC(=O)c1ccnc(C(=O)N2c3ccccc3[C@H](N(C(C)=O)c3ccccc3)C[C@@H]2C)c1 (relative stereo) [Example 47, Cis-2-[4-(Acetyl-phenyl-amino)-2-methyl-3,4-dihydro-2H-quinoline-1-carbonyl]-isonicotinic acid methyl ester] | < 5
CC(=O)N(c1ccccc1)[C@@H]1C[C@H](C)N(C(=O)c2cnoc2C)c2ccccc21 (relative stereo) [Example 36, Cis-N-[2-Methyl-1-(5-methyl-isoxazole-4-carbonyl)-1,2,3,4-tetrahydro-quinolin-4-yl]-N-phenyl-acetamide] | < 5
COc1cc(C(=O)N2c3ccccc3[C@H](N(C(C)=O)c3ccccc3)C[C@@H]2C)cc(OC)n1 (relative stereo) [Example 49, Cis-N-[1-(2,6-Dimethoxy-pyridine-4-carbonyl)-2-methyl-1,2,3,4-tetrahydro-quinolin-4-yl]-N-phenyl-acetamide] | < 5
CC(=O)N(c1ccccc1)[C@@H]1C[C@H](C)N(C(=O)c2ccccc2)c2cc(Cl)ccc21 (relative stereo) [Example 86, Cis-N-(1-Benzoyl-7-chloro-2-methyl-1,2,3,4-tetrahydro-quinolin-4-yl)-N-phenyl-acetamide] | < 5
CC(=O)N(c1ccccc1)[C@@H]1C[C@H](C)N(C(=O)c2ccc(C(=O)N(C)C)s2)c2ccccc21 (relative stereo) [Example 41, Cis-5-[4-(Acetyl-phenyl-amino)-2-methyl-3,4-dihydro-2H-quinoline-1-carbonyl]-thiophene-2-carboxylic acid dimethylamide] | < 5
COc1ccc2c(c1)[C@H](N(C(C)=O)c1ccccc1)C[C@H](C)N2C(=O)c1ccccc1 (relative stereo) [Example 83, Cis-N-(1-Benzoyl-6-methoxy-2-methyl-1,2,3,4-tetrahydro-quinolin-4-yl)-N-phenyl-acetamide] | < 5
COc1ccc(C(=O)N2c3ccccc3[C@H](N(C(C)=O)c3ccccc3)C[C@@H]2C)cc1 (relative stereo) [Example 5, Cis-N-[1-(4-Methoxy-benzoyl)-2-methyl-1,2,3,4-tetrahydro-quinolin-4-yl]-N-phenyl-acetamide] | < 5
CC(=O)N(c1ccccc1)[C@@H]1C[C@H](C)N(C(=O)c2cc[nH]n2)c2ccccc21 (single isomer, unassigned) [Example 67, Cis-N-[2-Methyl-1-(1H-pyrazole-3-carbonyl)-1,2,3,4-tetrahydro-quinolin-4-yl]-N-phenyl-acetamide] | < 5
CC(=O)N(c1ccccc1)[C@@H]1C[C@H](C)N(C(=O)c2ccnc(-c3ccccc3)c2)c2ccccc21 (relative stereo) [Example 56, Cis-N-[2-Methyl-1-(2-phenyl-pyridine-4-carbonyl)-1,2,3,4-tetrahydro-quinolin-4-yl]-N-phenyl-acetamide] | < 5
CC(=O)N(c1ccccc1)[C@@H]1C[C@H](C)N(C(=O)c2ccc(Cl)s2)c2ccccc21 (relative stereo) [Example 38, Cis-N-[1-(5-Chloro-thiophene-2-carbonyl)-2-methyl-1,2,3,4-tetrahydro-quinolin-4-yl]-N-phenyl-acetamide] | < 5
CC(=O)N(c1ccccc1)[C@@H]1C[C@H](C)N(C(=O)c2cccs2)c2ccccc21 (relative stereo) [Example 1, Cis-N-[2-Methyl-1-(thiophene-2-carbonyl)-1,2,3,4-tetrahydro-quinolin-4-yl]-N-phenyl-acetamide] | < 5
CC(=O)N(c1ccccc1)[C@@H]1C[C@H](C)N(C(=O)c2ccc(C)nc2Cl)c2ccccc21 (relative stereo) [Example 25, Cis-N-[1-(2-Chloro-6-methyl-pyridine-3-carbonyl)-2-methyl-1,2,3,4-tetrahydro-quinolin-4-yl]-N-phenyl-acetamide] | < 5
CC(=O)N(c1ccccc1)[C@@H]1C[C@H](C)N(C(=O)c2cccnc2)c2ccccc21 (relative stereo) [Example 93, Cis-N-[2-Methyl-1-(pyridine-3-carbonyl)-1,2,3,4-tetrahydro-quinolin-4-yl]-N-phenyl-acetamide] | < 5
CC(=O)N(c1ccccc1)[C@@H]1C[C@H](C)N(C(=O)c2ccc(-n3cnnc3)cc2)c2ccccc21 (relative stereo) [Example 48, Cis-N-[2-Methyl-1-(4-[1,2,4]triazol-4-yl-benzoyl)-1,2,3,4-tetrahydro-quinolin-4-yl]-N-phenyl-acetamide] | < 5
